# According to PubChem BioAssay AID2685 (National Center for Advancing Translational Sciences (NCATS), 2010):
# This is one part of the list. Further columns of the screen follow, without active or inactive calls. Compounds called inactive in the main read-out are mostly missing here. The note in brackets gives the kind of curve behind each potency; many fits are weak.
# Experiment: qHTS Assay for Lipid Storage Modulators in Drosophila S3 Cells;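 as to cell number change: cells counted by Cell Tracker Red CMTPX staining in the red channel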
# Settings: BODIPY lipid droplet fluorescence, 18-24 h; for cell number change: measured here: cell count max response, cells fed with added oleic acid
# Method in brief: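 Drosophila S3 cells got compounds at several concentrations plus oleic acid (400 uM solution). Laser-scanning cytometry with 488 nm excitation read lipid droplets at 500-530 nm and cells at 575-640 nm. Percent activity was relative to 20 uM Triacsin C.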
# [1] = measured here: cell number channel AC50, cells fed with added oleic acid
# [2] = measured here: lipid fluorescence (Fed channel) AC50, cells fed with added oleic acid
Compound,cell number change [%],AC50 [1],AC50 [2]
O=C(c1ccc(COc2ccc(Br)cc2)o1)N1N=C(C(F)F)CC1(O)C(F)F (stereo unspecified),-70.7,"16.4 µM [falling, partial curve]","20.6 µM [falling, partial curve]"
Cc1nc(SCn2nnc3ccccc3c2=O)nc(C)c1C,-11.6,,"0.366 µM [rising, full curve]"
Cc1cccc(Nc2nnc(SC/C(O)=C(\C#N)c3nc4ccccc4[nH]3)s2)c1C,21.2,,"2.59 µM [rising, full curve]"
CCOCN(C(=O)Cn1c(COC)nc2ccccc21)c1c(C)cccc1CC,47.8,"1.64 µM [rising, full curve]","1.84 µM [rising, partial curve]"
Cc1ccc(Nc2nc3ccccc3nc2-n2nc(C)cc2C)cc1,71.4,"18.4 µM [rising, single point]",
COc1ccc(S(=O)(=O)CCc2nc3ccccc3s2)cc1,2.89,"0.058 µM [rising, full curve, poor fit]",
O=C1C2=C(c3ccccc31)[N+](=O)C1CCCCC1N2[O-] (stereo unspecified),16.7,,"23.1 µM [rising, single point]"
Oc1ccc(-c2[nH]ncc2-c2nc3ccccc3s2)c(O)c1,39.2,"5.17 µM [rising, partial curve, poor fit]","0.58 µM [rising, partial curve]"
CCc1c(C)n([O-])c2c([n+]1=O)CCCCC2,38.6,"0.651 µM [rising, full curve]","5.17 µM [falling, full curve]"
CCOC(=O)C1CCCN(C(=O)CCCn2c(=O)c3cccn3c3cccnc32)C1 (stereo unspecified),7.96,,"29.1 µM [rising, single point]"
O=C(Cc1ccccc1)Nc1ccc(-c2nnc(-c3ccco3)o2)cc1,-14.4,,"1.84 µM [falling, full curve, poor fit]"
CC(C)NC(=O)CCn1ccc2cc(S(=O)(=O)N3CCCC3)ccc21,-4.78,,"0.82 µM [rising, single point]"
Cc1ccc(NS(=O)(=O)c2cc(C(=O)N3CCOCC3)ccc2C)cc1C,-51.2,"23.1 µM [falling, single point]",
O=C(NC1CCCCCC1)C1CCCN(S(=O)(=O)c2cccs2)C1 (stereo unspecified),-3.91,,
O=C(CCc1ccccc1)NNC(=O)COc1ccc(Cl)cc1,16.5,"3.26 µM [rising, partial curve, poor fit]","29.1 µM [rising, single point]"
CCn1c(=O)cc(OCC(=O)NC(C)c2ccc3c(c2)OCCO3)c2ccccc21 (stereo unspecified),16.1,"2.06 µM [rising, single point]","6.51 µM [rising, single point]"
CCOC(=O)C1(Cc2cccc(Cl)c2)CCCN(C(=O)C(C)(C)C)C1 (stereo unspecified),9.62,,
COC(=O)CSc1nnc(-c2ccncc2)o1,3.12,,"18.4 µM [falling, partial curve, poor fit]"
N#Cc1nc(-c2cccc3ccccc23)oc1NCCN1CCCCC1,,,"0.58 µM [falling, full curve, poor fit]"
COc1ccc(N(CC(=O)NCCSc2ccccn2)S(=O)(=O)c2ccccc2)c(OC)c1,-3.95,,"3.16 µM [falling, partial curve]"

Compound,cell number change [%],AC50 [1],AC50 [2]
O=C(c1ccc2ccccc2c1)N1CCN(c2ccccc2)CC1,-0.556,,"16.4 µM [rising, single point]"
Cc1csc(=Nc2c(C)n(C)n(-c3ccccc3)c2=O)n1-c1ccccc1,-58.3,"0.92 µM [falling, full curve]","0.651 µM [falling, full curve, poor fit]"
CCc1ccc(-c2nc(SCC(=O)N(CCOC)c3c(N)n(Cc4ccccc4)c(=O)[nH]c3=O)n[nH]2)cc1,4.91,"0.82 µM [rising, full curve, poor fit]","0.92 µM [rising, full curve]"
COc1cccc(NC(=O)CN(C)C(=O)c2ccc(S(=O)(=O)Nc3ccccc3F)cc2)c1,-19.1,,"0.00461 µM [falling, full curve, poor fit]"
CCOC(=O)NC(=O)CSc1ccc(C)cc1C,,,"0.103 µM [falling, single point]"
COc1cccc(N2CC(NC(=O)C(=O)c3c[nH]c4ccccc34)CC2=O)c1 (stereo unspecified),85.9,"10.3 µM [rising, partial curve]",
Cc1ccc(N=CC=C2OC(C)(C)C(C)(C)O2)cc1,58,"29.1 µM [rising, single point]","29.1 µM [falling, single point]"
N#C/C(=N\Nc1ccc([N+](=O)[O-])cc1)C(=N)N1CCOCC1,17.2,"0.116 µM [rising, full curve, poor fit]",
Cc1nnc(N2CCc3ccccc3C2)[nH]c1=O,0.718,,"1.84 µM [falling, partial curve, poor fit]"
O=C(NNc1c2ccccc2nc2ccccc12)c1ccccc1O,16.7,"2.06 µM [falling, partial curve]","20.6 µM [falling, single point]"
O=C(CSc1nc2ccccc2s1)N1CCOCC1,,,"0.58 µM [falling, single point]"
Cc1ccc(N2CC(C(=O)NC3CC3)CC2=O)cc1Cl (stereo unspecified),16.2,,"0.58 µM [falling, single point]"
CC12CCC(=O)N1C(C(=O)OCc1c(Cl)cccc1Cl)CS2 (stereo unspecified),10.4,,
O=C1c2ccccc2C2(c3ccc(F)cc3)NCCN12 (stereo unspecified),-19.1,"2.06 µM [falling, partial curve]","7.31 µM [falling, partial curve]"
CCOC(=O)C(NC(=O)c1ccccc1)(OCc1ccccc1)C(F)(F)F (stereo unspecified),-55.3,"10.3 µM [falling, partial curve]","1.16 µM [falling, full curve]"
CCCn1c(C(C)C)n[nH]c1=S,-24.9,,"5.8 µM [falling, full curve]"
CC(OC(=O)c1ccc(O)cc1)C(=O)Nc1cc(C(F)(F)F)ccc1Cl (stereo unspecified),-47.7,"25.9 µM [falling, single point]","29.1 µM [falling, single point]"
CCOC(=O)C(C)c1nn(C)c(=O)c2ccccc12 (stereo unspecified),-24.7,,
CCC(C)(C)NC(=O)C(c1cccn1C)N(C(=O)Cn1nnc2ccccc21)c1ccccc1OC (stereo unspecified),-5.66,,"29.1 µM [rising, single point]"
CCCOc1ccc(C(=O)Nc2ccc(NC(=O)c3cccs3)cc2)cc1,13.3,,"10.3 µM [rising, partial curve]"

# For reference, part of the list above.
Compound,cell number change [%],AC50 [1],AC50 [2]
O=C1c2ccccc2C2(c3ccc(F)cc3)NCCN12 (stereo unspecified),-19.1,"2.06 µM [falling, partial curve]","7.31 µM [falling, partial curve]"
CCOC(=O)C(NC(=O)c1ccccc1)(OCc1ccccc1)C(F)(F)F (stereo unspecified),-55.3,"10.3 µM [falling, partial curve]","1.16 µM [falling, full curve]"

# More results follow:

Compound,cell number change [%],AC50 [1],AC50 [2]
C#Cc1ccc([C@@H]2C=C(C(=O)OCC=C)O[C@H](OCc3ccc(CO)cc3)C2)cc1,21.9,,"0.164 µM [rising, partial curve]"
Cc1ccc(NC(=O)c2ccc(=O)n(CC(=O)Nc3ccccc3)n2)cc1,-3.3,,
Cc1ccc(CNC(=O)c2ccc(N3CCC4(CC3)CC(c3cccc(Br)c3)=NO4)c(NC(=O)c3ccccc3)c2)cc1,6.93,,"0.164 µM [falling, full curve]"
Cc1ccc(C)c(-n2[nH]c3c4c(ccc3c2=O)C(=O)c2ccccc2C4=O)c1,11.4,"0.164 µM [falling, full curve, poor fit]","6.51 µM [falling, partial curve]"
O=C(NCC1(N2CCOCC2)CCCCC1)c1ccc(Cl)c(S(=O)(=O)NCc2ccco2)c1,-19,,
COC(=O)CCCCCCCCC(O)C[N+]1(C)CCOCC1 (stereo unspecified),34.7,"11.6 µM [rising, single point]",
COc1ccccc1NS(=O)(=O)c1cc(C(=O)NCc2ccco2)ccc1C,65,"18.4 µM [rising, single point]","1.84 µM [rising, partial curve]"
O=C(CN1C(=O)NC2(CCCC2)C1=O)NCCC1=CCCCC1,-37.2,"29.1 µM [falling, single point]","29.1 µM [falling, single point]"
Cc1cn2nc(N)c3ccccc3c2n1,-26.2,,
O=C(Nc1ccc(-c2ccco2)cc1)C1CCCN(Cc2ccc(CO)o2)C1 (stereo unspecified),-15.8,,"0.116 µM [falling, full curve, poor fit]"
Cc1csc(SCC(=O)NCc2ccc3c(c2)OCO3)n1,-5.81,,"0.164 µM [falling, partial curve, poor fit]"
COC(=O)CSc1nnc(COc2cccc3ccccc23)o1,-1.35,,
O=C1CSC(c2cn(-c3ccccc3)nc2-c2ccccc2)N1Cc1ccco1 (stereo unspecified),-63.2,"5.8 µM [falling, full curve]",
CCOC(=O)C1CCN(C(=O)c2ccccc2CCc2ccccc2)CC1,-11,,"29.1 µM [falling, single point]"
COc1ccc(C(C)=O)cc1COC(=O)CSCC(=O)Nc1ccc(C)cc1,-7.64,,"0.259 µM [falling, full curve, poor fit]"
CCn1c2ccccc2c2cc(NC(=O)c3cccc(OC)c3OC)ccc21,-11.8,,"11.6 µM [falling, single point]"
COc1cc(OC)cc(C(=O)Nc2ccc(S(=O)(=O)Nc3cc(C)on3)cc2)c1,-2.46,,"1.16 µM [falling, full curve, poor fit]"
O=C(Cc1ccccc1)Nc1cccnc1,16.6,,"0.231 µM [rising, full curve]"
